Source: patent US6861508
Results are given in words; binding and its absence hold for the method and conditions named. Binding seen in cells or lysates may run through a third protein. Some binding calls cover weakened binding; strength is not graded here.

The chains behind the UniProt entries cited, without tags or fusion partners. Residues count along the entry.
UniProt P03372, residues 282-595: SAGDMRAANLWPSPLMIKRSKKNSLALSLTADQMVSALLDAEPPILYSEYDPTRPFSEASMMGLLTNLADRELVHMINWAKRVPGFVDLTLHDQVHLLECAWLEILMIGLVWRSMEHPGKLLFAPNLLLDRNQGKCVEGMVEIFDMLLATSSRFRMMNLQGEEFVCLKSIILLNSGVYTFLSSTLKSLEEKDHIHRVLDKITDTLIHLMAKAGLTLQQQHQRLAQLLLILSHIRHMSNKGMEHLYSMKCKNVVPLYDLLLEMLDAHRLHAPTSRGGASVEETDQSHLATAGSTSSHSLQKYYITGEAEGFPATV

Biological target: GST-hERα(DEF) (pGEX2T-hERα(DEF), amino acids 282-595) (human) (UniProt P03372)
Assay: GST pull-down from HeLa whole cell extract with E2, Western blot

- binding: binds
B1: TIF1 (protein, UniProt O15164 1-1050, looked up)
chain: MEVAVEKAVAAAAAASAAASGGPSAAPSGENEAESRQGPDSERGGEAARLNLLDTCAVCHQNIQSRAPKLLPCLHSFCQRCLPAPQRYLMLPAPMLGSAETPPPVPAPGSPVSGSSPFATQVGVIRCPVCSQECAERHIIDNFFVKDTTEVPSSTVEKSNQVCTSCEDNAEANGFCVECVEWLCKTCIRAHQRVKFTKDHTVRQKEEVSPEAVGVTSQRPVFCPFHKKEQLKLYCETCDKLTCRDCQLLEHKEHRYQFIEEAFQNQKVIIDTLITKLMEKTKYIKFTGNQIQNRIIEVNQNQKQVEQDIKVAIFTLMVEINKKGKALLHQLESLAKDHRMKLMQQQQEVAGLSKQLEHVMHFSKWAVSSGSSTALLYSKRLITYRLRHLLRARCDASPVTNNTIQFHCDPSFWAQNIINLGSLVIEDKESQPQMPKQNPVVEQNSQPPSGLSSNQLSKFPTQISLAQLRLQHMQQQVMAQRQQVQRRPAPVGLPNPRMQGPIQQPSISHQQPPPRLINFQNHSPKPNGPVLPPHPQQLRYPPNQNIPRQAIKPNPLQMAFLAQQAIKQWQISSGQGTPSTTNSTSSTPSSPTITSAAGYDGKAFGSPMIDLSSPVGGSYNLPSLPDIDCSSTIMLDNIVRKDTNIDHGQPRPPSNRTVQSPNSSVPSPGLAGPVTMTSVHPPIRSPSASSVGSRGSSGSSSKPAGADSTHKVPVVMLEPIRIKQENSGPPENYDFPVVIVKQESDEESRPQNANYPRSILTSLLLNSSQSSTSEETVLRSDAPDSTGDQPGLHQDNSSNGKSEWLDPSQKSPLHVGETRKEDDPNEDWCAVCQNGGELLCCEKCPKVFHLSCHVPTLTNFPSGEWICTFCRDLSKPEVEYDCDAPSHNSEKKKTEGLVKLTPIDKRKCERLLLFLYCHEMSLAFQDPVPLTVPDYYKIIKNPMDLSTIKKRLQEDYSMYSKPEDFVADFRLIFQNCAEFNEPDSEVANAGIKLENYFEELLKNLYPEKRFPKPEFRNESEDNKFSDDSDDDFVQPRKKRLKSIEERQLLK
